According to patent publication US20170369523A1 (POLYPHOR AG, priority 2008, published 2017):
HELM strings list residues between dots; [ac] is acetyl, [am] amide, other brackets name non-standard units.

experiment: general procedure: Fmoc solid-phase peptide synthesis; Fmoc-ProO-chlorotritylresin, Fmoc-4Hyp2(tBu)O-chlorotritylresin, Fmoc-OicO-chlorotritylresin, Fmoc-4Mpl(Trt)O-chloro-tri; details: whole synthesis, Analytical HPLC (Acquity UPLC BEH C18)

Question: Which “final HPLC purity” value does the source give for “Asp Cys Phe Trp Lys Tyr Cys Cha ^DPro^LPro” here?
Answer: Its value is 90%.

Question: With “Asp Cys Phe Trp Lys Tyr Cys Leu ^D4Hyp2^LPro” as the substance, how does the “final HPLC purity” value read?
Answer: Its value is 95%.

Question: With “Asp Cys Phe ^DTrp Orn Tyr Cys Val ^DPro^LPro” as the substance, how does the “final HPLC purity” value read?
Answer: The value was 90%.

Question: For “Cha Glu Trp Leu Ala Trp Glu Cha ^DPro^LPro”, which “final HPLC purity” value is on record?
Answer: The value was 80%.

Question: Which “final HPLC purity” value does the source give for “Cha Glu Trp Leu Ala Trp Glu Phe ^DPro^LPro” here?
Answer: Its value is 90%.

Question: With “Glu Glu Trp Leu Ala Trp Glu Phe ^DPro^LPro” as the substance, how does the “final HPLC purity” value read?
Answer: Its value is 95%.

Question: For “Met Glu Trp Leu Asp Trp Glu Phe ^DPro^LPro”, which “final HPLC purity” value is on record?
Answer: The value was 80%.

Question: For “PEPTIDE1{D.C.F.W.K.Y.C.L.[dE].P}$PEPTIDE1,PEPTIDE1,1:R1-10:R2|PEPTIDE1,PEPTIDE1,2:R3-7:R3$$$V2.0”, which “final HPLC purity” value is on record?
Answer: Its value is 90%.

Question: For “PEPTIDE1{D.C.F.W.K.Y.C.L.[dS].P}$PEPTIDE1,PEPTIDE1,1:R1-10:R2|PEPTIDE1,PEPTIDE1,2:R3-7:R3$$$V2.0”, which “final HPLC purity” value is on record?
Answer: The value was 95%.

Question: With “PEPTIDE1{D.C.F.W.K.Y.C.V.[dP].P}$PEPTIDE1,PEPTIDE1,1:R1-10:R2|PEPTIDE1,PEPTIDE1,2:R3-7:R3$$$V2.0” as the substance, how does the “final HPLC purity” value read?
Answer: The value was 90%.

Question: Which “final HPLC purity” value does the source give for “PEPTIDE1{D.C.F.[dW].K.Y.C.V.[dP].P}$PEPTIDE1,PEPTIDE1,1:R1-10:R2|PEPTIDE1,PEPTIDE1,2:R3-7:R3$$$V2.0” here?
Answer: Its value is 85%.

Question: With “PEPTIDE1{D.C.Y.W.K.Y.C.L.[dP].P}$PEPTIDE1,PEPTIDE1,1:R1-10:R2|PEPTIDE1,PEPTIDE1,2:R3-7:R3$$$V2.0” as the substance, how does the “final HPLC purity” value read?
Answer: Its value is 90%.

Question: Which “final HPLC purity” value does the source give for “Phe Ala Trp(6Cl) Leu Asp Trp Glu Phe ^DPro^LPro” here?
Answer: The value was 95%.

Question: Which “final HPLC purity” value does the source give for “Phe Glu Ala Leu Asp Trp Glu Phe ^DPro^LPro” here?
Answer: Its value is 95%.

Question: With “Phe Glu Trp Gly Ala Trp Glu Phe ^DPro^LPro” as the substance, how does the “final HPLC purity” value read?
Answer: Its value is 95%.

Question: With “Phe Glu Trp Leu Ala Trp Glu Glu ^DPro^LPro” as the substance, how does the “final HPLC purity” value read?
Answer: Its value is 95%.

Question: Which “final HPLC purity” value does the source give for “Phe Glu Trp Leu Ala Trp Glu Glu(cHx) ^DPro^LPro” here?
Answer: The value was 90%.

Question: Which “final HPLC purity” value does the source give for “Phe Glu Trp Leu Ala Trp Glu Ile ^DPro^LPro” here?
Answer: The value was 60%.

Question: Which “final HPLC purity” value does the source give for “Phe Glu Trp Leu Ala Trp Glu Phe ^DPro^L4Hyp2” here?
Answer: Its value is 90%.

Question: With “Phe Glu Trp Leu Ala Trp Glu Trp ^DPro^LOic” as the substance, how does the “final HPLC purity” value read?
Answer: The value was 95%.

Question: Which “final HPLC purity” value does the source give for “Phe Glu Trp Leu Ala Trp Leu Phe ^DPro^LPro” here?
Answer: The value was 95%.

Question: With “Phe Glu Trp Leu Ala Trp Tyr Phe ^DPro^LPro” as the substance, how does the “final HPLC purity” value read?
Answer: The value was 95%.

Question: With “Phe Glu Trp Leu Asp Trp Glu Met ^DPro^LPro” as the substance, how does the “final HPLC purity” value read?
Answer: The value was 80%.

Question: Which “final HPLC purity” value does the source give for “Phe Glu Trp Leu Asp Trp Glu Phe ^DPro^LPro” here?
Answer: The value was 95%.

Question: Which “final HPLC purity” value does the source give for “Phe Glu Trp Leu Gly Trp Glu Phe ^DPro^LPro” here?
Answer: Its value is 95%.

Question: For “Phe Glu Trp Leu Tyr Trp Glu Phe ^DPro^LPro”, which “final HPLC purity” value is on record?
Answer: Its value is 92%.

Question: With “Phe Glu Trp Leu ^DAla Trp Glu Phe ^DPro^LPro” as the substance, how does the “final HPLC purity” value read?
Answer: The value was 95%.

Question: For “Phe Glu Trp Tyr Ala Trp Glu Phe ^DPro^LPro”, which “final HPLC purity” value is on record?
Answer: Its value is 95%.

Question: For “Phe Glu Trp(6Cl) Cys Ala Trp Glu Phe ^DPro^LPro”, which “final HPLC purity” value is on record?
Answer: Its value is 50%.

Question: With “Phe Glu Trp(6Cl) Leu Ala OctG Glu Phe ^DPro^LPro” as the substance, how does the “final HPLC purity” value read?
Answer: Its value is 90%.

Question: Which “final HPLC purity” value does the source give for “Phe Glu Trp(6Cl) Leu Ala Trp Glu Phe ^DPro^LPro” here?
Answer: The value was 95%.

Question: For “Phe Glu Trp(6Cl) Leu Asp Ala Glu Phe ^DPro^LPro”, which “final HPLC purity” value is on record?
Answer: Its value is 95%.

Question: For “Phe Glu Trp(6Cl) Leu Asp Trp Ala Phe ^DPro^LPro”, which “final HPLC purity” value is on record?
Answer: The value was 95%.

Question: With “Phe Leu Trp Leu Ala Trp Glu Phe ^DPro^LPro” as the substance, how does the “final HPLC purity” value read?
Answer: The value was 95%.

Question: For “Phe Thr Trp(6Cl) Leu Ala Trp Glu Phe ^DPro^L4Mp1”, which “final HPLC purity” value is on record?
Answer: Its value is 85%.
